No constants are given. Whether binding was seen depends on the method and setting. Binding seen in cells or lysates may run through a third protein. Some results given as binding are weak or reduced against the parent protein; the word gives no strength.
Molecular target: NLRP3 full-length-mCitrine (in iMos) (human) (UniProt Q96P20)
Assay: co-IP; iMos stably expressing NLRP3-mCitrine variants; IP in GFP-trap plates, 2.5 h at 4 °C shaking; endogenous NEK7 detected by immunoblot; for activated co-IP cells primed with LPS, CRID3 and YVAD added, nigericin 20 min

By UniProt entry, the sequences of proteins in these tests, tags left out.
UniProt Q96P20: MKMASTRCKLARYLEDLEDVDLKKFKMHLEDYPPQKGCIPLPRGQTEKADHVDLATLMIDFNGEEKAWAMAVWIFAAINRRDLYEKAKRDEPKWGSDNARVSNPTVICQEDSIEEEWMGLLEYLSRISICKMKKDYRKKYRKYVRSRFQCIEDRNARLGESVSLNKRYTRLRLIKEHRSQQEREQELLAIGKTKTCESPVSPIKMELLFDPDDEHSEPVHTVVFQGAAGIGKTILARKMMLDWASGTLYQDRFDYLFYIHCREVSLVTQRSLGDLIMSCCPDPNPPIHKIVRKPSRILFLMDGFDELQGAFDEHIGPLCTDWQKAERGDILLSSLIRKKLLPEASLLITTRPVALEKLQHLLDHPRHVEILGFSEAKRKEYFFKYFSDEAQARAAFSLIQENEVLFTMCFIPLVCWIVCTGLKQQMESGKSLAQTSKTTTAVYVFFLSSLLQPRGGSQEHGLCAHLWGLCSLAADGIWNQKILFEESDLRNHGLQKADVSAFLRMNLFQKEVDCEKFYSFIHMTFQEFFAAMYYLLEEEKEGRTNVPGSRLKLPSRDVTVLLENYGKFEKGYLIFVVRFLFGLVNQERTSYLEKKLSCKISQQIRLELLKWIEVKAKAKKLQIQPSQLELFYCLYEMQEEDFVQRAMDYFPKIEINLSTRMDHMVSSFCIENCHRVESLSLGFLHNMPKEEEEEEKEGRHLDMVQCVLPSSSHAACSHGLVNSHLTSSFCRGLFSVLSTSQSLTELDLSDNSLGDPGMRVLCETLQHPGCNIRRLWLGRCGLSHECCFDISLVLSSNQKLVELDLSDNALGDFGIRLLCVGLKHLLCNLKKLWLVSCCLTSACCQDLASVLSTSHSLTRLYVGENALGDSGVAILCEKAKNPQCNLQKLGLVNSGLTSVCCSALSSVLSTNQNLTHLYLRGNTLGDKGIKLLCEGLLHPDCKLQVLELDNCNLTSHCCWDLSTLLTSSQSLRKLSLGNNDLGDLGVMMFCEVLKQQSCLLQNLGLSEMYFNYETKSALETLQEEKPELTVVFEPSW
UniProt Q9ES74: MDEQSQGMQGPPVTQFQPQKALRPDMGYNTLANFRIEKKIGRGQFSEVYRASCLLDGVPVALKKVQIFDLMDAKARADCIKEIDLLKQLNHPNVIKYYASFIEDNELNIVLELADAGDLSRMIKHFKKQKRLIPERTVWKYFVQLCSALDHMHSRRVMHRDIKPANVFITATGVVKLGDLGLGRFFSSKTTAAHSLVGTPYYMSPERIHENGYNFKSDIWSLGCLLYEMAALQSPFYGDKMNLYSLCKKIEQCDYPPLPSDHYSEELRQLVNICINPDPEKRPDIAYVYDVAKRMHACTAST

In the case of “NEK7, endogenous in mouse immortalized macrophages (from UniProt Q9ES74 1-302)”, the binding is reported as “binds”.

From PMC6642158
